Results published in the RepoRT retention time repository.

Assay: HILIC, Merck SeQuant ZIC-HILIC, 25 °C, 0.25 mL/min; A: water + 16 mM ammonium formate; B: acetonitrile + 0.1% formic acid, pH 3; gradient (min/%B) 0/97 2/97 10/70 15/10 17/10 18/97 25/97
Details: stereoisomer not certain

| LC retention time [min] | SMILES |
| --- | --- |
| 1.77 | O=C(O)C(=O)Cc1ccc(O)cc1 [3-(4-HYDROXYPHENYL)PYRUVATE-C2H2O2] |
| 9.21 | O=C(O)C1=CC(=O)C(O)C(O)C1 (configuration not stated) [3-DEHYDROSHIKIMATE] |
